From PubChem BioAssay AID2685 (National Center for Advancing Translational Sciences (NCATS), 2010)
The campaign covered roughly 320,000 compounds. About 2,100 (0.66%) were called active. The shares of active, inactive and inconclusive entries below differ from those in the screen. Calls follow the shape of the dose curve; as a rule, active = well fitted inhibition curve with a large enough effect in the signal ratio, with a control signal flat (not every such curve was filed as active); inconclusive = small, poorly fitted or top-dose-only effect, or effect the other way, or a change in a side signal; inactive = flat fitted curve, though single readings scatter; the % refers to the signal ratio. Where the call is inconclusive, the potency comes from a doubtful curve fit.

Assay: qHTS Assay for Lipid Storage Modulators in Drosophila S3 Cells
Conditions: BODIPY lipid droplet fluorescence, 18-24 h, cells fed with added oleic acid; lipid storage change, negative = inhibition: at 46.1 µM (top of the series) unless noted
How it was run: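 Laser-scanning cytometry quantifies lipid droplet accumulation (500–530 nm total intensity; droplet/cell object ratio) in oleic acid-fed (400 uM added) Drosophila S3 cells treated with a concentration series. 20 uM Triacsin C defined 100% inhibition.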
% is scaled to controls: 0 for no effect and ±100 for the full control effect; potency is read from the fitted curve at half-maximal effect.

Row | Structure (SMILES) | lipid storage change, negative = inhibition | Potency
1 | O=C(NC(=S)Nc1ccc(S(=O)(=O)Nc2ccccc2)cc1)C1CC1 | inconclusive: 0.719% | –
2 | CCCS(=O)(=O)N1CCCC(C(=O)NCCN2CCCCC2C)C1 (configuration not stated) | – | inconclusive: 29.1 µM [activator, single point]
3 | O=C(CN1C(=O)NC(Cc2ccccc2)C1=O)Nc1ccc(OC(F)(F)F)cc1 (configuration not stated) | – | active: 23.1 µM
4 | Cc1ccc(NC(=O)COc2cccc3ccc(C)nc23)c(Br)c1 | inconclusive: 72.5% | –
5 | CC12CCC(=O)N1C(C(=O)Nc1ccc(SC(F)F)cc1)CS2 (configuration not stated) | inconclusive: 11.3% | –
6 | NS(=O)(=O)c1ccc(NC(=O)c2cc(-c3cccs3)nc3ccccc23)cc1 | – | inconclusive: 16.4 µM [falling, partial curve, poor fit]
7 | COc1ccccc1NS(=O)(=O)c1ccc2c(c1)N(C(C)=O)CC(C)S2 (configuration not stated) | inconclusive: 32.7% | –
8 | O=C(NNC(=O)c1ccccc1[N+](=O)[O-])c1ccc(NS(=O)(=O)c2cccs2)cc1 | inconclusive: 27.6% | –
9 | Cc1ccc(C(=O)N2CCc3ccccc32)cc1[N+](=O)[O-] | inconclusive: 159% | –
10 | CN(C)S(=O)(=O)c1cccc(NC(=O)c2cccc(S(=O)(=O)N3CCc4ccccc43)c2)c1 | – | inconclusive: 0.103 µM [falling, full curve, poor fit]
11 | COc1ccc(NC2CCCN(C(=O)CCc3scnc3C)C2)cc1 (configuration not stated) | inconclusive: 7.57% | –
12 | Cc1cc(NCC2CCCCC2)nc2ccccc12 | – | inconclusive: 1.16 µM [falling, full curve, poor fit]
13 | COC(=O)CC1SCCNC1=O (configuration not stated) | inconclusive: -91% | –
14 | CCOc1cc(/C=C2\SC(=O)N(CC(=O)Nc3ccccc3F)C2=O)cc([N+](=O)[O-])c1O | inconclusive: -9.23% | –
15 | C=CCOC(=O)C1=C(C)Nc2ncnn2C1c1cc(Br)ccc1F (configuration not stated) | inconclusive: -32.9% | –
16 | O=C(CC1CCCCC1)N=C1SC2CS(=O)(=O)CC2N1c1ccccc1 (configuration not stated) | inconclusive: -16.7% | –
17 | CN1CCN(C(=O)c2cn(-c3ccccc3)nc2-c2cccs2)CC1 | inconclusive: 10.5% | –
18 | Cc1cccc(OCC(=O)Nc2cccc(O)c2)c1 | inconclusive: -59.4% | –
19 | O=C(O)C1CC(=O)N(c2ccc(F)cc2)C1 (configuration not stated) | – | inconclusive: 4.11 µM [falling, full curve]
20 | CCOc1ccc(S(=O)(=O)N2CCCC(C(=O)NCc3ccccn3)C2)cc1C (configuration not stated) | – | inconclusive: 0.13 µM [activator, full curve]
21 | CCOc1ccccc1N1CCN(CC(O)COc2ccc3c(C)cc(=O)oc3c2)CC1 (configuration not stated) | – | inconclusive: 0.259 µM [activator, single point]
22 | CCOCCC(=O)Nc1nnc(CCc2ccccc2)s1 | – | inconclusive: 29.1 µM [activator, single point]
23 | Cc1cccc(NC(=O)c2c(C)nc3ccccn23)c1 | inactive: 6.1% | –
24 | Cc1nn(CC(=O)NCCCN2CCC(Cc3ccccc3)CC2)c(=O)c2cc(-c3ccccc3)nn12 | – | inconclusive: 1.3 µM [activator, single point]
25 | Cc1csc(NC(=O)CCC(=O)N(CC(=O)NC2CCCC2)Cc2ccco2)n1 | inactive: 8.55% | –
26 | COc1ccc(-c2cc(C)no2)cc1S(=O)(=O)NCC1CCN(Cc2cc(C)ccc2C)CC1 | – | inconclusive: 29.1 µM [activator, single point]

Row | Structure (SMILES) | lipid storage change, negative = inhibition | Potency
27 | Cc1ccc(C(=O)Nc2ccc(N3CCOCC3)c3nonc23)cc1[N+](=O)[O-] | – | inconclusive: 6.51 µM [falling, single point]
28 | O=C(COC(=O)c1ccc(S(=O)(=O)N2CCCCC2)cc1)NCc1ccc(F)cc1 | inconclusive | –
29 | O=C(NNS(=O)(=O)c1ccc(Br)cc1)C1CCCCC1 | inconclusive: 18.9% | –
30 | CN(Cc1ccccc1)C(=O)c1nn2cccnc2c1Cl | – | inconclusive: 0.092 µM [activator, full curve, poor fit]
31 | O=C(CSc1ccccc1)Nc1ccc(S(=O)(=O)NCC2CCCO2)cc1 (configuration not stated) | inconclusive: -30% | –
32 | Cc1ccc(Cl)c(NC(=O)COC(=O)C2CCC2)c1Cl | inconclusive | –
33 | O=C(COc1ccccc1[N+](=O)[O-])Nc1ccc2c(c1)OCO2 | inconclusive: -27.8% | –
34 | Cc1ccc(S(=O)(=O)N(C)c2ccc(C(=O)N3CCC(C(N)=O)CC3)cc2)cc1 | – | active: 23.1 µM
35 | Cc1cc(C)n(CC(=O)c2ccccc2)c(=O)c1C#N | inconclusive: 19.6% | –
36 | CCOC(=O)C1CCCN(C(=O)C2CCN(S(=O)(=O)c3cnc[nH]3)CC2)C1 (configuration not stated) | – | inconclusive: 20.6 µM [falling, single point]
37 | CC1CCCN(CC(=O)Nc2cc(Cl)ccc2Oc2ccccc2)C1 (configuration not stated) | inconclusive: 194% | –
38 | CCc1n[nH]c2c1/C(=N\O)CC(c1ccccc1)C2 (configuration not stated) | inconclusive: 10.5% | –
39 | O=C(Nc1ccc2c(c1)OCCO2)C1CCCN(c2ncccn2)C1 (configuration not stated) | – | inconclusive: 29.1 µM [activator, single point]
40 | COc1cccc(N(CC(=O)NC(C)(C)C)C(=O)C2CSC(=O)C2)c1 (configuration not stated) | inconclusive: -121% | –
41 | Cc1ccc(Nc2nc(N)nc(CSC(=S)N3CCOCC3)n2)cc1 | – | inconclusive: 25.9 µM [falling, partial curve]
42 | COC(=O)c1ccc(S(=O)(=O)N(Cc2cc3cc4c(cc3[nH]c2=O)OCO4)C2CCCCC2)cc1 | inconclusive: 24.1% | –
43 | C#CCNC(=O)C1=C[C@@H](c2ccc(C(F)(F)F)cc2)[C@H](CCCO)[C@@H](OCC)O1 | inconclusive: -9.8% | –
44 | COc1ccc(CNC(=O)Nc2ccc3c(c2)N(C)C(=O)CS3)cc1 | inconclusive: -27.3% | –
45 | FC(F)(F)c1cccc(Cc2noc(CN3CCC(N4CCCCC4)CC3)n2)c1 | inconclusive: -18.5% | –
46 | CC(=O)NCC(=O)OCC(=O)c1ccc2ccccc2c1 | – | inconclusive: 3.26 µM [falling, partial curve, poor fit]
47 | COC(=O)C(C)(C)ONC(=O)Nc1ccc(Br)cc1 | inconclusive: 11.8% | –
48 | CCOc1ccccc1/C=C/c1nc2ccccc2[nH]c1=O | – | inconclusive: 0.103 µM [activator, full curve, poor fit]
49 | COc1ccc(C(=O)Nc2ccc(NC(=O)c3ccccc3F)cn2)cc1 | inconclusive: -74.3% | –
50 | C=CCNC(=O)Nc1ccc(F)c(Cl)c1 | inconclusive: 2.65% [at 9.22 µM] | –
51 | Cc1ccccc1NCN1C(=O)C2CCC(C)(C1=O)C2(C)C (configuration not stated) | inactive: -4.09% | –
52 | CCCC(=O)N1CCN(c2ccc([N+](=O)[O-])c(NC(C)c3ccccc3)c2)CC1 (configuration not stated) | – | inconclusive: 25.9 µM [falling, single point]

In the list so far, two contain an aryl thioether with sulfur outside any ring:
Row | Structure (SMILES) | lipid storage change, negative = inhibition | Potency
5 | CC12CCC(=O)N1C(C(=O)Nc1ccc(SC(F)F)cc1)CS2 (configuration not stated) | inconclusive: 11.3% | –
31 | O=C(CSc1ccccc1)Nc1ccc(S(=O)(=O)NCC2CCCO2)cc1 (configuration not stated) | inconclusive: -30% | –

(more compounds)

Row | Structure (SMILES) | lipid storage change, negative = inhibition | Potency
53 | COc1cccc(OCC(=O)NNC(=O)c2cnccn2)c1 | inconclusive: 19.4% | –
54 | Cn1c(N)nc2nc(CCc3ccccc3)c(=O)[nH]c2c1=O | – | inconclusive: 0.291 µM [falling, partial curve, poor fit]
55 | CCn1cc(C(=O)NCc2ccccc2OC)c(=O)c2ccc(C)nc21 | inconclusive: 7.95% | –
56 | COc1cc2nc(N(CCCN(C)C)C(=O)c3ccc(C(=O)c4ccccc4)cc3)sc2cc1OC | inconclusive: 24.7% | –
57 | COc1ccc(CC(=O)Nc2ccc3c(c2)CCC3)cc1S(=O)(=O)N1CCOCC1 | inconclusive: 9.39% | –
58 | CC(=O)NCCc1cc2cc(C)c(C)cc2[nH]c1=O | – | inconclusive: 6.51 µM [activator, single point]
59 | CC(=O)N1CC[n+]2c(-c3ccc([N+](=O)[O-])cc3)csc21 | inconclusive: -2.8% | –
60 | CCOc1ccc(N2C(=O)c3cccnc3C2Nc2ccc(C)cc2)cc1 (configuration not stated) | inconclusive: 7.32% | –
61 | c1ccc(-n2cnc3cc(NCc4cccs4)ccc32)cc1 | inconclusive: -22.8% | –
62 | COc1cccc(CC(=O)OC(C)C(=O)Nc2ccc(N3CCOCC3)cc2)c1 (configuration not stated) | inconclusive: 13.4% | –
63 | Cc1nn(C)c(Oc2ccc(Cl)cc2)c1C(=O)Nc1ccc(F)cc1F | – | inconclusive: 0.0046 µM [activator, full curve, poor fit]
64 | CN(C)c1cc[n+](CC(=O)N2CCCc3ccccc32)cc1 | inconclusive: -71.8% | –
65 | O=C(COC(=O)c1ccc(F)cc1)Nc1nc2ccc([N+](=O)[O-])cc2s1 | inconclusive: 12.2% | –
66 | O=C(N/N=C/C1CC=CCC1)c1cc2ccccc2cc1O (configuration not stated) | – | inconclusive: 0.164 µM [falling, full curve, poor fit]
67 | Brc1ccccc1/C=N/Nc1ccccn1 | inconclusive: 22.3% | –
68 | O=C(OCn1nnc2ccccc2c1=O)c1cccnc1 | inconclusive: -36.4% | –
69 | O=C(Nn1cnnc1)C(c1ccccc1)c1ccccc1 | inconclusive: -13.8% | –
70 | COC(=O)C(C)N(c1ccc(OC)cc1)S(C)(=O)=O (configuration not stated) | inconclusive: 20.4% | –
71 | Cc1ccc(S(=O)(=O)c2cc3ccccc3nc2N)cc1 | inconclusive: -11.6% | –
72 | CC(C)CCN1C(=O)CCC1(C)C(=O)NC1CCCCCCC1 (configuration not stated) | – | inconclusive: 16.4 µM [falling, single point]
73 | COc1ccc(NC(=O)Nc2ccc(C)cc2Br)c(OC)c1 | – | inconclusive: 0.731 µM [falling, single point]
74 | Cc1ccccc1OCCC(=O)N1CCN(S(=O)(=O)c2ccc(Br)cc2)CC1 | – | inconclusive: 6.51 µM [rising, partial curve, poor fit]
75 | COc1nnc(OC)c2ccccc12 | inconclusive: 12.4% | –
76 | CCCC(NS(=O)(=O)c1ccc(Br)cc1)C(=O)O (configuration not stated) | – | inconclusive: 4.11 µM [falling, full curve]
77 | CN(CC(=O)N1CCCC1)S(=O)(=O)c1cccc(Cl)c1 | – | inconclusive: 16.4 µM [falling, single point]
